The results in this text go back to the supplement of paper PMC7752906.

Structures can show the parent of a compound that is named as a salt. The list shows a part of the results. Single values are uncertain here, since repeats match poorly.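 About 40 Schistosoma mansoni schistosomula per well were imaged over time in bright field and compared with 0.1% DMSO wells. A drug counts as a hit if its Mahalanobis distance reaches 2.47 or more, three standard deviations above the DMSO control mean. Degeneracy is the fraction of worms scored opaque.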

This assay relates to Schistosoma mansoni schistosomula. Kind of assay: degeneracy (percent of somules classified as degenerate/opaque); higher = more parasite degeneration/death; extreme values may be limits of the assay. Conditions: 10 µM; 72 h.
The compound `O=C1O[C@H](CO)[C@@H](O)[C@H](O)[C@H]1O` [Gluconolactone] gave a degeneracy of 5%.

Compound `Nc1ncnc(Nc2ccc(Cl)cc2)n1` [Chlorazanil Hydrochloride] had a degeneracy of 13.9%.

`Cc1cc(=O)n(-c2ccccc2)n1C` [Antipyrine] returned a degeneracy of 18.2%.

Consider `CO[C@H]1O[C@@H]2O[C@@]3(C)CC[C@H]4[C@H](C)CC[C@@H]([C@H]1C)[C@@]24OO3` [Artemether], for which the degeneracy was 7.41%.

Turning to `NC12CC3CC(CC(C3)C1)C2` [Amantadine], the degeneracy turned out to be 15.4%.

Turning to `Cc1ccc(-c2ncc(Cl)cc2-c2ccc(S(C)(=O)=O)cc2)cn1` [Etoricoxib], the degeneracy turned out to be 8.82%.

`CC1CCc2c(N3CCC(O)CC3)c(F)cc3c(=O)c(C(=O)O)cn1c23` (stereo not given) [Nadifloxacin] gave a degeneracy of 3.03%.

`CC(=O)N(O)CCCCCNC(=O)CCC(=O)N(O)CCCCCNC(=O)CCC(=O)N(O)CCCCCN` [Deferoxamine]: the degeneracy was 4.08%.

`CCN[C@H]1C[C@H](C)S(=O)(=O)c2sc(S(N)(=O)=O)cc21` [Dorzolamide??hcl] displayed a degeneracy of 5.88%.

In turn, `CN1CC(=O)NC1=N` [Creatinine] registered a degeneracy of 15.8%.

On to `CN1CCc2cccc3c2[C@H]1Cc1ccc(O)c(O)c1-3` [R(-)-apomorphine], for which the degeneracy came out at 0%.

Turning to `CN1CCc2cccc3c2[C@H]1Cc1ccc(O)c(O)c1-3` [Apomorphine Hydrochloride], the degeneracy amounted to 3.33%.

On to `CCC(NC(C)C)C(O)c1ccc(O)c(O)c1` (stereo not given) [Isoetharine Mesylate], for which the degeneracy came to 9.68%.

For `CCC(Cc1c(I)cc(I)c(N)c1I)C(=O)O` (stereo not given) [Iopanic Acid], the degeneracy stood at 7.14%.

Compound `C[C@]12CC[C@@H]3c4ccc(O)cc4CC[C@H]3[C@@H]1CC[C@@H]2OC(=O)CCC1CCCC1` [Estradiol Cypionate] gave a degeneracy of 16%.

In turn, `C[C@@H]1[C@H](O)[C@@H](C)/C=C/C=C/C=C/C=C/C=C/C=C/C=C/[C@H](O[C@@H]2O[C@H](C)[C@@H](O)[C@H](N)[C@@H]2O)C[C@@H]2O[C@](O)(C[C@@H](O)C[C@@H](O)[C@H](O)CC[C@@H](O)C[C@@H](O)CC(=O)O[C@H]1C)C[C@H](O)[C@H]2C(=O)O` [Amphotericin B] returned a degeneracy of 6.98%.

The compound `CCOC(=O)C(C)(C)Oc1ccc(Cl)cc1` [Clofibrate] gave a degeneracy of 100%.

Compound `CCCc1nc(C(C)(C)O)c(C(=O)O)n1Cc1ccc(-c2ccccc2-c2nnn[nH]2)cc1` [Olmesartan] registered a degeneracy of 0%.

In turn, `O=C(OCc1ccccc1)c1ccccc1` [Benzyl Benzoate] came in with a degeneracy of 83.3%.

The compound `OC(CCN1CCCCC1)(c1ccccc1)C1CCCCC1` (stereo not given) [Trihexyphenidyl] showed a degeneracy of 12.2%.

In turn, `Cc1ccc2c(Cl)cc(Cl)c(O)c2n1` [Chlorquinaldol] showed a degeneracy of 0%.

`N=C(N)N/N=C/c1c(Cl)cccc1Cl` [Guanabenz] had a degeneracy of 16.3%.

`CN(C)CCOC(=O)COc1ccc(Cl)cc1` [Meclofenoxate] had a degeneracy of 9.38%.

`Brc1c(NC2=NCCN2)ccc2nccnc12` displayed a degeneracy of 2.33%.

With `COC(=O)C(N)CS` (stereo not given) [Mecysteine Hydrochloride], the degeneracy was determined as 3.12%.

Turning to `CC(N)C12CC3CC(CC(C3)C1)C2` (stereo not given) [Rimantadine], the degeneracy amounted to 100%.

With `CC(N)C12CC3CC(CC(C3)C1)C2` (stereo not given) [Rimantadine Hydrochloride], the degeneracy was determined as 0%.

In turn, `CN(C)CC[C@@H](c1ccc(Cl)cc1)c1ccccn1` [Dexchlorpheniramine] came in with a degeneracy of 17.4%.

In turn, `NC(N)=O` came in with a degeneracy of 6.67%.

The compound `CCOc1ccccc1OCCNC(C)Cc1ccc(OC)c(S(N)(=O)=O)c1` (stereo not given) [Amsulosin] registered a degeneracy of 100%.

Turning to `CN(C)[C@@H]1C(O)=C(C(N)=O)C(=O)[C@@]2(O)C(O)=C3C(=O)c4c(O)ccc(Cl)c4[C@@H](O)[C@H]3C[C@@H]12` [Demeclocycline Hydrochloride], the degeneracy turned out to be 0%.

`CC(Oc1ccccc1)C(=O)N[C@@H]1C(=O)N2[C@@H]1SC(C)(C)[C@@H]2C(=O)O` (stereo not given in full) [Phenethicillin Potassium]: the degeneracy was found to be 3.23%.

As for `COc1ccc(-c2cc(C(F)F)nn2-c2ccc(S(N)(=O)=O)cc2)cc1F` [Deracoxib], the degeneracy was 2.44%.

`Cn1nnnc1SCC1=C(C(=O)O)N2C(=O)[C@@H](NC(=O)[C@H](OC=O)c3ccccc3)[C@H]2SC1` [Cefamandole Nafate] came in with a degeneracy of 22.7%.

The compound `C[C@]12CC[C@@H]3c4ccc(O)cc4CC[C@H]3[C@@H]1C[C@@H](O)[C@@H]2O` [Estriol] yielded a degeneracy of 20.8%.

In turn, `CCCCC(=O)O[C@]1(C(=O)CO)CC[C@H]2[C@@H]3CCC4=CC(=O)CC[C@]4(C)[C@H]3[C@@H](O)C[C@@]21C` [Hydrocortisone Valerate] registered a degeneracy of 3.12%.

Consider `CCc1cccc2c3c([nH]c12)C(CC)(CC(=O)O)OCC3` (stereo not given) [Etodolac], for which the degeneracy was found to be 5.56%.

In turn, `CC1=C(CC(=O)O)c2cc(F)ccc2/C1=C\c1ccc([S+](C)[O-])cc1` (stereo not given) [Sulindac] showed a degeneracy of 5.88%.

The compound `Cc1ccccc1N1C(=O)c2cc(S(N)(=O)=O)c(Cl)cc2NC1C` (stereo not given) [Metolazone] came in with a degeneracy of 3.23%.

Compound `Cc1cc(-n2c(=O)[nH]c(=O)n(C)c2=O)ccc1Oc1ccc(SC(F)(F)F)cc1` [Toltrazuril] displayed a degeneracy of 20%.

In the case of `CC(C)COC(=O)c1ccc(N)cc1` [Isobutamben], the degeneracy turned out to be 100%.

`C=CC1=C(C(=O)O)N2C(=O)[C@@H](NC(=O)/C(=N\OCC(=O)O)c3csc(N)n3)[C@H]2SC1` [Cefixime]: the degeneracy worked out at 0%.

`OCCOCCN1CCN(C(c2ccccc2)c2ccc(Cl)cc2)CC1` (stereo not given) [Hydroxyzine] displayed a degeneracy of 0%.

For `CC(=O)Oc1c(C)c(C)c2c(c1C)CCC(C)(CCCC(C)CCCC(C)CCCC(C)C)O2` (stereo not drawn) [Alpha-tochopheryl Acetate], the degeneracy came out at 11.1%.

Take `CCCCC(CC)CN=C(N)N=C(N)NCCCCCCNC(N)=NC(N)=NCC(CC)CCCC` (stereo not given) [Alexidine Hydrochloride]: the degeneracy was determined as 100%.

In the case of `CN(C)[C@@H]1C(O)=C(C(N)=O)C(=O)[C@@]2(O)C(O)=C3C(=O)c4c(O)ccc(Cl)c4[C@@](C)(O)[C@H]3C[C@@H]12` [Chlortetracycline], the degeneracy was found to be 10.5%.

`O=C1OC2(c3ccc(O)cc3Oc3cc(O)ccc32)c2ccccc21` [Fluorescein] yielded a degeneracy of 17.8%.

The compound `COc1cnc(NS(=O)(=O)c2ccc(N)cc2)nc1` [Sulfameter] yielded a degeneracy of 3.85%.

With `O=C(O)CCC(=O)Nc1ccc(S(=O)(=O)Nc2nccs2)cc1` [Succinylsulfathiazole], the degeneracy turned out to be 2.44%.

The compound `O=NN(CCCl)C(=O)NC1CCCCC1` [Lomustine] showed a degeneracy of 2.13%.
